Drawing on article doi:10.1101/390062, this text covers binding for two molecules.

For this assay, the target named is T1, GST-Vam7 (S. cerevisiae) (UniProt P32912).
T1 sequence: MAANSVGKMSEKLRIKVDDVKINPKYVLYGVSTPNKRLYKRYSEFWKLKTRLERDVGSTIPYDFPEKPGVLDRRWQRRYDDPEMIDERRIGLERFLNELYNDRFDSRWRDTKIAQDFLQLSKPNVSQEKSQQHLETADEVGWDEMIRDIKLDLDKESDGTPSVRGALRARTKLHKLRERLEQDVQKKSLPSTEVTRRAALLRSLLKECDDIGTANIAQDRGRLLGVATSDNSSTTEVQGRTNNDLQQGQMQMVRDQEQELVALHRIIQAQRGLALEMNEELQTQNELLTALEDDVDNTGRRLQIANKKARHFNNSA
In words: pull-down.

No constants are given. Whether binding was seen depends on the method and setting. In cells and extracts the contact can be indirect. Some entries that bind do so weakly or less than the wild type. Sequences can lack the tags named with a protein.

B1: Nyv1 (protein, UniProt Q12255 1-253)
chain: MKRFNVSYVEVIKNGETISSCFQPFQKNENYGTITSANEQITPVIFHNLIMDMVLPKVVPIKGNKVTKMSMNLIDGFDCFYSTDDHDPKTVYVCFTLVDMPKILPIRILSGLQEYESNATNELLSSHVGQILDSFHEELVEYRNQTLNSSGNGQSSNGNGQNTISDIGDATEDQIKDVIQIMNDNIDKFLERQERVSLLVDKTSQLNSSSNKFRRKAVNIKEIMWWQKVKNITLLTFTIILFVSAAFMFFYLW
On to B1, for which the binding result is “binds”.

B2: Vam3 (protein, UniProt Q12241 1-283)
chain: MSFFDIEAQSSKGNSQQEPQFSTNQKTKELSNLIETFAEQSRVLEKECTKIGSKRDSKELRYKIETELIPNCTSVRDKIESNILIHQNGKLSADFKNLKTKYQSLQQSYNQRKSLFPLKTPISPGTSKERKDIHPRTEAVRQDPESSYISIKVNEQSPLLHNEGQHQLQLQEEQEQQQQGLSQEELDFQTIIHQERSQQIGRIHTAVQEVNAIFHQLGSLVKEQGEQVTTIDENISHLHDNMQNANKQLTRADQHQRDRNKCGKVTLIIIIVVCMVVLLAVLS
For B2, the binding entry is recorded as “binds”.
